# Test results reported in patent US20070134261A1, “Effectors of innate immunity” (priority 2001, published 2007).
# At least one peptide structure holds a part that was inferred or is arguable (an end, a ring closure or a residue). No end group written: not given here.
# Tested on: A549 epithelial cells
# Assay: Human Operon arrays (PRHU04-S1) of A549 cells treated with peptide alone (Tables 31-37, 53)
# Conditions: peptide 50 μg/ml, 4 h
sequence,measurement,setting,value
TTLGPVKRDSIPGE [ID 14],"ID#:ctrl intensity ratio, AB006622 KIAA0284 protein",,2.8
same,"ID#:ctrl intensity ratio, AB010419 core-binding factor",,2.0
same,"ID#:ctrl intensity ratio, AB014615 fibroblast growth factor 8",,7.0
same,"ID#:ctrl intensity ratio, AB017016 brain-specific protein",,2.5
same,"ID#:ctrl intensity ratio, AB020683 KIAA0876 protein",,2.2
same,"ID#:ctrl intensity ratio, AB022847 unknown",,3.5
same,"ID#:ctrl intensity ratio, AB023188 KIAA0971 protein",,3.6
same,"ID#:ctrl intensity ratio, AB023197 KIAA0980 protein",,2.1
same,"ID#:ctrl intensity ratio, AB023215 KIAA0998 protein",,7.9
same,"ID#:ctrl intensity ratio, AB032436 unknown",,6.1
same,"ID#:ctrl intensity ratio, AC004079 homeo box A2",,2.1
same,"ID#:ctrl intensity ratio, AF013620 Immunoglobulin heavy variable 4-4",,6.2
same,"ID#:ctrl intensity ratio, AF053712 TNF superfamily_member 11",,3.0
same,"ID#:ctrl intensity ratio, AF055018 unknown",,2.7
same,"ID#:ctrl intensity ratio, AJ000512 serum/glucocorticoid regulated kinase",,4.9
same,"ID#:ctrl intensity ratio, AK000685 unknown",,2.8
same,"ID#:ctrl intensity ratio, AK000946 DKFZP566C243 protein",,3.9
same,"ID#:ctrl intensity ratio, AK001230 DKFZP586D211 protein",,2.1
same,"ID#:ctrl intensity ratio, AL033377 unknown",,2.6
same,"ID#:ctrl intensity ratio, AL049296 unknown",,2.7
same,"ID#:ctrl intensity ratio, AL050219 unknown",,3.1
same,"ID#:ctrl intensity ratio, AL080182 unknown",,2.2
same,"ID#:ctrl intensity ratio, AL109726 uknown",,4.3
same,"ID#:ctrl intensity ratio, AL137284 unknown",,4.1
same,"ID#:ctrl intensity ratio, AL137540 unknown",,3.9
same,"ID#:ctrl intensity ratio, AL137658 unknown",,2.6
same,"ID#:ctrl intensity ratio, AL137728 unknown",,2.2
same,"ID#:ctrl intensity ratio, AL157466 unknown",,16.7
same,"ID#:ctrl intensity ratio, D38550 E2F TF 3",,2.1
same,"ID#:ctrl intensity ratio, D45399 phosphodiesterase",,5.0
same,"ID#:ctrl intensity ratio, D50926 KIAA0136 protein",,2.0
same,"ID#:ctrl intensity ratio, J04599 biglycan",,6.6
same,"ID#:ctrl intensity ratio, L17325 pre-T/NK cell associated protein",,6.5
same,"ID#:ctrl intensity ratio, M91036 hemoglobin gamma G",,5.8
same,"ID#:ctrl intensity ratio, M91036 hemoglobin_gamma A",,2.1
same,"ID#:ctrl intensity ratio, NM_012126 carbohydrate sulfotransferase 5",,3.2
same,"ID#:ctrl intensity ratio, NM_012177 F-box protein",,3.8
same,"ID#:ctrl intensity ratio, NM_014178 HSPC156 protein",,2.9
same,"ID#:ctrl intensity ratio, NM_016331 zinc finger protein",,11.0
same,"ID#:ctrl intensity ratio, U22492 G protein-coupled receptor 8",,4.8
same,"ID#:ctrl intensity ratio, U76010 solute carrier family 30",,3.7
same,"ID#:ctrl intensity ratio, U76368 solute carrier family 7",,2.8
same,"ID#:ctrl intensity ratio, X04014 unknown",,2.2
same,"ID#:ctrl intensity ratio, X04391 CD5 antigen",,2.7
same,"ID#:ctrl intensity ratio, X54673 Solute-carrier family 6",,2.2
same,"ID#:ctrl intensity ratio, X58079 S100 calcium-binding protein A1",,5.9
same,"ID#:ctrl intensity ratio, X75311 mevalonate kinase",,2.0
same,"ID#:ctrl intensity ratio, X78712 glycerol kinase pseudogene 2",,4.5
same,"ID#:ctrl intensity ratio, X85740 CCR4",,2.6
same,"ID#:ctrl intensity ratio, Z11898 POU domain_class 5 TF 1",,8.2
same,"ID#:ctrl intensity ratio, AL031121 unknown",Formula B peptides,3.8
same,"ID#:ctrl intensity ratio, NM_012450 sulfate transporter 1",Formula B peptides,8.2
same,"ID#:ctrl intensity ratio, U21931 fructose-bisphosphatase 1",Formula B peptides,2.9
RAPYWPWAWARPRK [ID 21],"ID#:ctrl intensity ratio, AB010962 matrix metalloproteinase",,2.4
same,"ID#:ctrl intensity ratio, AB033063 unknown",,4.0
same,"ID#:ctrl intensity ratio, AB033080 cell cycle progression 8 protein",,3.0
same,"ID#:ctrl intensity ratio, AB037786 unknown",,2.8
same,"ID#:ctrl intensity ratio, AC007059 unknown",,3.1
same,"ID#:ctrl intensity ratio, AF023466 putative glycine-N-acyltransferase",,4.2
same,"ID#:ctrl intensity ratio, AF030555 fatty-acid-Coenzyme A ligase",,11.3
same,"ID#:ctrl intensity ratio, AF050078 growth arrest specific 11",,2.5
same,"ID#:ctrl intensity ratio, AF052116 unknown",,9.2
same,"ID#:ctrl intensity ratio, AF064493 LIM binding domain 2",,2.2
same,"ID#:ctrl intensity ratio, AF144412 lens epithelial cell protein",,6.8
same,"ID#:ctrl intensity ratio, AF181286 unknown",,12.0
same,"ID#:ctrl intensity ratio, AJ272208 IL-1R accessory protein-like 2",,5.0
same,"ID#:ctrl intensity ratio, AJ272265 secreted phosphoprotein",,3.3
same,"ID#:ctrl intensity ratio, AJ275355 unknown",,5.4
same,"ID#:ctrl intensity ratio, AK001024 guanine nucleotide-binding protein",,9.8
same,"ID#:ctrl intensity ratio, AK001244 unknown",,2.3
same,"ID#:ctrl intensity ratio, AK001856 unknown",,2.6
same,"ID#:ctrl intensity ratio, AL022723 MHC, class I, F",,4.4
same,"ID#:ctrl intensity ratio, AL049423 unknown",,3.8
same,"ID#:ctrl intensity ratio, AL050125 unknown",,5.2
same,"ID#:ctrl intensity ratio, AL050201 unknown",,3.7
same,"ID#:ctrl intensity ratio, AL080107 unknown",,12.4
same,"ID#:ctrl intensity ratio, AL096729 unknown",,3.2
same,"ID#:ctrl intensity ratio, AL109792 unknown",,4.3
same,"ID#:ctrl intensity ratio, AL117457 cofilin 2",,3.3
same,"ID#:ctrl intensity ratio, AL117567 DKFZP566O084 protein",,2.9
same,"ID#:ctrl intensity ratio, AL133602 unknown",,8.7
same,"ID#:ctrl intensity ratio, AL137362 unknown",,2.7
same,"ID#:ctrl intensity ratio, AL137489 unknown",,2.6
same,"ID#:ctrl intensity ratio, D38449 putative G protein coupled receptor",,13.3
same,"ID#:ctrl intensity ratio, J00210 interferon alpha 13",,2.8
same,"ID#:ctrl intensity ratio, J03068 N-acylaminoacyl-peptide hydrolase",,2.2
same,"ID#:ctrl intensity ratio, L13720 growth arrest-specific 6",,6.8
same,"ID#:ctrl intensity ratio, L22569 cathepsin B",,6.2
same,"ID#:ctrl intensity ratio, L40933 phosphoglucomutase 5",,4.8
same,"ID#:ctrl intensity ratio, M27190 regenerating islet-derived 1 alpha",,3.8
same,"ID#:ctrl intensity ratio, M33906 MHC class II, DQ alpha 1",,15.2
same,"ID#:ctrl intensity ratio, M37238 phospholipase C, gamma 2",,3.2
same,"ID#:ctrl intensity ratio, M81933 cell division cycle 25A",,19.6
same,"ID#:ctrl intensity ratio, NM_001756 corticosteroid binding globulin",,3.9
same,"ID#:ctrl intensity ratio, NM_006963 zinc finger protein",,6.2
same,"ID#:ctrl intensity ratio, NM_014099 PRO1768 protein",,5.4
same,"ID#:ctrl intensity ratio, S70348 Integrin beta 3",,4.1
same,"ID#:ctrl intensity ratio, U27655 regulator of G-protein signaling",,4.5
same,"ID#:ctrl intensity ratio, U60179 growth hormone receptor",,2.3
same,"ID#:ctrl intensity ratio, U80770 unknown",,23.3
same,"ID#:ctrl intensity ratio, U86529 glutathione S-transferase zeta 1",,4.4
same,"ID#:ctrl intensity ratio, U92981 unknown",,4.8
same,"ID#:ctrl intensity ratio, X05323 unknown",,2.6
same,"ID#:ctrl intensity ratio, X54131 protein tyrosine phosphatase, receptor type,",,7.7
same,"ID#:ctrl intensity ratio, X66403 cholinergic receptor",,10.9
same,"ID#:ctrl intensity ratio, X67734 contactin 2",,3.1
same,"ID#:ctrl intensity ratio, X68879 empty spiracles homolog 1",,12.3
same,"ID#:ctrl intensity ratio, X73113 myosin-binding protein C",,6.0
same,"ID#:ctrl intensity ratio, X84003 TATA box binding protein",,2.5
same,"ID#:ctrl intensity ratio, AL031121 unknown",Formula C peptides,3.2
same,"ID#:ctrl intensity ratio, NM_012450 sulfate transport 1",Formula C peptides,10.0
same,"ID#:ctrl intensity ratio, U21931 fructose-bisphosphatase 1",Formula C peptides,2.6
DLPAKRGSAPGST [ID 12],"ID#:ctrl intensity ratio, AB006622 KIAA0284 protein",,7.5
same,"ID#:ctrl intensity ratio, AB010419 core-binding factor",,2.5
same,"ID#:ctrl intensity ratio, AB014615 fibroblast growth factor 8",,3.9
same,"ID#:ctrl intensity ratio, AB017016 brain-specific protein",,3.1
same,"ID#:ctrl intensity ratio, AB020683 KIAA0876 protein",,3.7
same,"ID#:ctrl intensity ratio, AB022847 unknown",,4.5
same,"ID#:ctrl intensity ratio, AB023188 KIAA0971 protein",,5.9
same,"ID#:ctrl intensity ratio, AB023197 KIAA0980 protein",,4.0
same,"ID#:ctrl intensity ratio, AB023215 KIAA0998 protein",,14.8
same,"ID#:ctrl intensity ratio, AB032436 unknown",,3.8
same,"ID#:ctrl intensity ratio, AC004079 homeo box A2",,3.5
same,"ID#:ctrl intensity ratio, AF013620 Immunoglobulin heavy variable 4-4",,8.5
same,"ID#:ctrl intensity ratio, AF053712 TNF superfamily_member 11",,6.9
same,"ID#:ctrl intensity ratio, AF055018 unknown",,6.3
same,"ID#:ctrl intensity ratio, AJ000512 serum/glucocorticoid regulated kinase",,3.3
same,"ID#:ctrl intensity ratio, AK000685 unknown",,9.0
same,"ID#:ctrl intensity ratio, AK000946 DKFZP566C243 protein",,4.1
same,"ID#:ctrl intensity ratio, AK001230 DKFZP586D211 protein",,5.0
same,"ID#:ctrl intensity ratio, AL033377 unknown",,2.6
same,"ID#:ctrl intensity ratio, AL049296 unknown",,8.1
same,"ID#:ctrl intensity ratio, AL050219 unknown",,5.7
same,"ID#:ctrl intensity ratio, AL080182 unknown",,3.4
same,"ID#:ctrl intensity ratio, AL109726 uknown",,2.3
same,"ID#:ctrl intensity ratio, AL137284 unknown",,3.3
same,"ID#:ctrl intensity ratio, AL137540 unknown",,5.5
same,"ID#:ctrl intensity ratio, AL137658 unknown",,5.4
same,"ID#:ctrl intensity ratio, AL137728 unknown",,5.0
same,"ID#:ctrl intensity ratio, AL157466 unknown",,18.0
same,"ID#:ctrl intensity ratio, D38550 E2F TF 3",,5.8
same,"ID#:ctrl intensity ratio, D45399 phosphodiesterase",,6.1
same,"ID#:ctrl intensity ratio, D50926 KIAA0136 protein",,5.4
same,"ID#:ctrl intensity ratio, J04599 biglycan",,2.1
same,"ID#:ctrl intensity ratio, L17325 pre-T/NK cell associated protein",,6.1
same,"ID#:ctrl intensity ratio, M91036 hemoglobin gamma G",,3.4
same,"ID#:ctrl intensity ratio, M91036 hemoglobin_gamma A",,6.7
same,"ID#:ctrl intensity ratio, NM_012126 carbohydrate sulfotransferase 5",,3.7
same,"ID#:ctrl intensity ratio, NM_012177 F-box protein",,5.9
same,"ID#:ctrl intensity ratio, NM_014178 HSPC156 protein",,3.5
same,"ID#:ctrl intensity ratio, NM_016331 zinc finger protein",,12.8
same,"ID#:ctrl intensity ratio, U22492 G protein-coupled receptor 8",,10.4
same,"ID#:ctrl intensity ratio, U76010 solute carrier family 30",,9.7
same,"ID#:ctrl intensity ratio, U76368 solute carrier family 7",,3.8
same,"ID#:ctrl intensity ratio, X04014 unknown",,3.8
same,"ID#:ctrl intensity ratio, X04391 CD5 antigen",,7.2
same,"ID#:ctrl intensity ratio, X54673 Solute-carrier family 6",,2.9
same,"ID#:ctrl intensity ratio, X58079 S100 calcium-binding protein A1",,6.7
same,"ID#:ctrl intensity ratio, X75311 mevalonate kinase",,4.3
same,"ID#:ctrl intensity ratio, X78712 glycerol kinase pseudogene 2",,3.6
same,"ID#:ctrl intensity ratio, X85740 CCR4",,2.6
same,"ID#:ctrl intensity ratio, Z11898 POU domain_class 5 TF 1",,3.2
same,"ID#:ctrl intensity ratio, AL031121 unknown",Formula B peptides,14.1
same,"ID#:ctrl intensity ratio, NM_012450 sulfate transporter 1",Formula B peptides,2.2
same,"ID#:ctrl intensity ratio, U21931 fructose-bisphosphatase 1",Formula B peptides,5.4
